For the assay, the target named is V-ATPase subunit A with carboxy-terminal 3xFLAG (Saccharomyces cerevisiae) (UniProt P17255). The assay is described as follows: affinity purification with mass spectrometry; anti-FLAG agarose on lysate of yeast with 3xFLAG on subunit A, no detergent, 100 mM NaCl; eluted with 3xFLAG peptide, 5 mM ATP, 5 mM EDTA; then Superose 6; subunits identified by SDS-PAGE and MALDI-TOF.

By UniProt entry, the sequences of proteins in these tests, tags left out. Where a name states a change or a piece, a line headed by the entry shows the natural chain unless it says otherwise.
UniProt P17255: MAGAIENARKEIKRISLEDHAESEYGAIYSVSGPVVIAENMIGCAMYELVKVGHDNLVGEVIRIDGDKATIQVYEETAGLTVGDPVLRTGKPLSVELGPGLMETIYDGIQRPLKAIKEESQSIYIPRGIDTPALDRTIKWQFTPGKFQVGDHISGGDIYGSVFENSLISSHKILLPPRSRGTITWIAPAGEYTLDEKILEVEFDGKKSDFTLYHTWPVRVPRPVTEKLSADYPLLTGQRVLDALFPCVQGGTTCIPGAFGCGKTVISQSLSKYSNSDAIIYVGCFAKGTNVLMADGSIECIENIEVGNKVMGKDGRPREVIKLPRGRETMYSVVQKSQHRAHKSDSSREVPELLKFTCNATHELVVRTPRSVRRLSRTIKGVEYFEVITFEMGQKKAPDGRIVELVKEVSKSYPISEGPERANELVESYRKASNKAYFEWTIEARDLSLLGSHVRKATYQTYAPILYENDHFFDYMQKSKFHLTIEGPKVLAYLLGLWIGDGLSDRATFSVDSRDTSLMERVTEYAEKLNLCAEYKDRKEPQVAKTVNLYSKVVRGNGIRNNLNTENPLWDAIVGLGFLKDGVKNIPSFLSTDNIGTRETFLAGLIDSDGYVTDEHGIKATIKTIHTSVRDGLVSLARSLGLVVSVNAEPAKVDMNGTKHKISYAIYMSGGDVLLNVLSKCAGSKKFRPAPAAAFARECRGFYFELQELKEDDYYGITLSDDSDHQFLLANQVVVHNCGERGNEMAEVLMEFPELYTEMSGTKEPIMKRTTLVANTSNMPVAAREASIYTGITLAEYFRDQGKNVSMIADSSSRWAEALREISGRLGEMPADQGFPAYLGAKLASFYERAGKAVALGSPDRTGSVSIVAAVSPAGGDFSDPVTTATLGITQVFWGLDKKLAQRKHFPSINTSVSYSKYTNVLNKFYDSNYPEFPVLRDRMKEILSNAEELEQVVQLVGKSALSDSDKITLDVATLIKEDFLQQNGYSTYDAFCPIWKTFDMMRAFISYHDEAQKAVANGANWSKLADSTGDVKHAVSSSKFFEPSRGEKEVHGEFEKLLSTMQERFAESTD
UniProt P22203: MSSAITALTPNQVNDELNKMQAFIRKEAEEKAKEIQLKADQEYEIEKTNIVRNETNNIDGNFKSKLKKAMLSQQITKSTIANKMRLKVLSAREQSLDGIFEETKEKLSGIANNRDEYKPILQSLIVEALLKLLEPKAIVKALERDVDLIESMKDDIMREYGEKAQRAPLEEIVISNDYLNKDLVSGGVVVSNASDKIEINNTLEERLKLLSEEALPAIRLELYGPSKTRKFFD
UniProt P32610: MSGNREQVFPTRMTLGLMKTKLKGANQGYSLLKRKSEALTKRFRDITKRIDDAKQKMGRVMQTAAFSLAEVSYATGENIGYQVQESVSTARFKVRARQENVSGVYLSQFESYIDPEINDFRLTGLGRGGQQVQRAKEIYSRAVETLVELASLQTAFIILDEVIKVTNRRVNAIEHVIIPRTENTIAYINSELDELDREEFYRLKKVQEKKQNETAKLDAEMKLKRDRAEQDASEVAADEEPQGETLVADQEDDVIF
UniProt P39111: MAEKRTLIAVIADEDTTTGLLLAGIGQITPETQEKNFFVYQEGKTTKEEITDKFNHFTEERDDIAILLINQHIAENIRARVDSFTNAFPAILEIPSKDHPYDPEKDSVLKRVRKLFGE
UniProt P48836: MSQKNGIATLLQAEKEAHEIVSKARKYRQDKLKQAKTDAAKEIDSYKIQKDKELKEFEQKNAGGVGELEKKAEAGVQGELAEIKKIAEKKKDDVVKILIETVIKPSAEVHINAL

No constants are given. Whether binding was seen depends on the method and setting. Binding seen in cells or lysates may run through a third protein. A yes stands for co-enrichment or nearness to the bait. Other partners may have been found.

For the molecule “V-ATPase subunit E (from UniProt P22203 1-233)”, the binding entry is “binds”.

With “V-ATPase subunit D (from UniProt P32610 1-256)”, the binding entry was “binds”.

In the case of “V-ATPase subunit F (from UniProt P39111 1-118)”, the binding result is given as “binds”.

Take “V-ATPase subunit G (from UniProt P48836 1-114)”: the binding entry is “binds”.

B1: V-ATPase subunit H (protein, UniProt P41807 1-478)
chain: MGATKILMDSTHFNEIRSIIRSRSVAWDALARSEELSEIDASTAKALESILVKKNIGDGLSSSNNAHSGFKVNGKTLIPLIHLLSTSDNEDCKKSVQNLIAELLSSDKYGDDTVKFFQEDPKQLEQLFDVSLKGDFQTVLISGFNVVSLLVQNGLHNVKLVEKLLKNNNLINILQNIEQMDTCYVCIRLLQELAVIPEYRDVIWLHEKKFMPTLFKILQRATDSQLATRIVATNSNHLGIQLQYHSLLLIWLLTFNPVFANELVQKYLSDFLDLLKLVKITIKEKVSRLCISIILQCCSTRVKQHKKVIKQLLLLGNALPTVQSLSERKYSDEELRQDISNLKEILENEYQELTSFDEYVAELDSKLLCWSPPHVDNGFWSDNIDEFKKDNYKIFRQLIELLQAKVRNGDVNAKQEKIIIQVALNDITHVVELLPESIDVLDKTGGKADIMELLNHSDSRVKYEALKATQAIIGYTFK
Take B1: the binding entry is “binds”.

The record behind these values is paper PMC2933246.
